Record: PubChem BioAssay AID1259425 (University of Nebraska Medical Center, 2018)
Purpose: 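Compare each knockdown with KSR1 silencing using changes in marker transcripts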 (primary screen). Cells: HCT116 human colon cancer cells. Reagent: siRNA pool against human genes, 50 nM siRNA. Read-out: 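mRNA of six signature genes measured together by branched-DNA assay after 50 nM siRNA pool, blank removed, divided by geometric mean of two housekeeping genes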. Direction: BNIP3L mRNA: higher = more BNIP3L transcript after knockdown.
This is a random part of about 14,000 deposited reagents. Not all columns of the deposit are shown. Not stated in the record: the time to read-out.

For CCL28 the deposit lists BNIP3L mRNA, set 1 = 0.109.
After knock-down of TAS2R8 the results were BNIP3L mRNA, set 1 = 0.188.
Depletion of CCL4 gave: BNIP3L mRNA, set 1 = 0.182.
Depletion of FFAR3 gave: BNIP3L mRNA, set 1 = 0.119.

In a second layout: 2 of the entries above
CCL28
- BNIP3L mRNA, set 1: 0.109

TAS2R8
- BNIP3L mRNA, set 1: 0.188

Additional entries:
For ERI1, the values are BNIP3L mRNA, set 1 = 0.0778.
After knock-down of CHRM4, the screen gave BNIP3L mRNA, set 1 = 0.0452.
With knock-down of ZNF354C, the screen gave BNIP3L mRNA, set 1 = 0.178.
EDNRB scored BNIP3L mRNA, set 1 = 0.0809.
KCNK6 showed BNIP3L mRNA, set 1 = 0.112.
INPP5A showed BNIP3L mRNA, set 1 = 0.0833.
Knock-down of EMG1 came out at: BNIP3L mRNA, set 1 = 0.174.
With knock-down of DHX58 the results were BNIP3L mRNA, set 1 = 0.0887.
